The values below are quoted from earlier work in patent US20070043105A1, “Preventive for cerebal stroke recurrence” (ASTELLAS PHARMA INC., priority 2003, published 2007).

Each structure is given as a SMILES string.

The data set deals with brain infarction model animals. The settings on record: administered for 3 days before the brain infarction attack; cited from earlier work.

In the case of `CC(C)c1c(C(=O)Nc2ccccc2)c(-c2ccccc2)c(-c2ccc(F)cc2)n1CC[C@@H](O)C[C@@H](O)CC(=O)O` [atorvastatin, (-)-(3R,5R)-7-[2-(4-fluorophenyl)-5-isopropyl-3-phenyl-4-phenylcarbamoyl-1H-pyrrol-1-yl]-3,5-dihydroxyheptanoic acid], the brain infarction volume result is on record as “effective for reducing the brain infarction volume”.
